# From the supplement of paper PMC6411743
# ± gives the standard deviation of the averaged measurements. This is a selection; strong and weak results do not stand in their true shares.
# Tests used:
# Assay in all cases: NP40-soluble protein abundance relative to vehicle (solubility fold change) (ratio); higher = more soluble protein in presence of ATP
# [1] = target: T1, A6NK28 and related entries (UniProt Q13163)
# T1 sequence (whole entry): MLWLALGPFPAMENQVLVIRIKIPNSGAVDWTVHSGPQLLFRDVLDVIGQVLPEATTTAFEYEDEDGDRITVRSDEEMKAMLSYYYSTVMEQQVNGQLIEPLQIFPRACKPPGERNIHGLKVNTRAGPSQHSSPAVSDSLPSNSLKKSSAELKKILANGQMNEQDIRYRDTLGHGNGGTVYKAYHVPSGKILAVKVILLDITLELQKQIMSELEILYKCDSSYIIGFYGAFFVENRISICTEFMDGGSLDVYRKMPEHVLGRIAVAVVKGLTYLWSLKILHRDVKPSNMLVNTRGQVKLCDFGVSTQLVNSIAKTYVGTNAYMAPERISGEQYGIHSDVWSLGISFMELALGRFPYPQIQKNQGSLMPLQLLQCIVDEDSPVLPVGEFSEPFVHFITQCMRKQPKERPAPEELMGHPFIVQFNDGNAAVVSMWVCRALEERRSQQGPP
# Summary of the method: (§1)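 In three independent experiments, Jurkat crude lysate made by Dounce homogenisation was treated for 10 min at room temperature and then 3 min at 37 °C with eight concentrations ranging from 0.1 to 10 mM. It was then solubilised with 0.8% NP40 plus benzonase for 60 min at 4 °C and ultracentrifuged. The supernatant was TMT-labelled for LC-MS/MS, and each value is the fold change against the detergent-processed vehicle for the same replicate, using vsn-normalised intensities.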
# [2] = target: T2, A8K878 and related entries (UniProt P55145)
# T2 sequence (whole entry): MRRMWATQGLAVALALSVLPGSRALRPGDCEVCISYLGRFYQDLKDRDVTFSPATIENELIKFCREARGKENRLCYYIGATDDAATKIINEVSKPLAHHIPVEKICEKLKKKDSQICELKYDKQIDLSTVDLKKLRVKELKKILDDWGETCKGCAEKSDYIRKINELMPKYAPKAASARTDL
# Summary of the method: as §1
# [3] = target: T3, A9IYQ1 and related entries (UniProt Q9NTI5)
# T3 sequence (whole entry): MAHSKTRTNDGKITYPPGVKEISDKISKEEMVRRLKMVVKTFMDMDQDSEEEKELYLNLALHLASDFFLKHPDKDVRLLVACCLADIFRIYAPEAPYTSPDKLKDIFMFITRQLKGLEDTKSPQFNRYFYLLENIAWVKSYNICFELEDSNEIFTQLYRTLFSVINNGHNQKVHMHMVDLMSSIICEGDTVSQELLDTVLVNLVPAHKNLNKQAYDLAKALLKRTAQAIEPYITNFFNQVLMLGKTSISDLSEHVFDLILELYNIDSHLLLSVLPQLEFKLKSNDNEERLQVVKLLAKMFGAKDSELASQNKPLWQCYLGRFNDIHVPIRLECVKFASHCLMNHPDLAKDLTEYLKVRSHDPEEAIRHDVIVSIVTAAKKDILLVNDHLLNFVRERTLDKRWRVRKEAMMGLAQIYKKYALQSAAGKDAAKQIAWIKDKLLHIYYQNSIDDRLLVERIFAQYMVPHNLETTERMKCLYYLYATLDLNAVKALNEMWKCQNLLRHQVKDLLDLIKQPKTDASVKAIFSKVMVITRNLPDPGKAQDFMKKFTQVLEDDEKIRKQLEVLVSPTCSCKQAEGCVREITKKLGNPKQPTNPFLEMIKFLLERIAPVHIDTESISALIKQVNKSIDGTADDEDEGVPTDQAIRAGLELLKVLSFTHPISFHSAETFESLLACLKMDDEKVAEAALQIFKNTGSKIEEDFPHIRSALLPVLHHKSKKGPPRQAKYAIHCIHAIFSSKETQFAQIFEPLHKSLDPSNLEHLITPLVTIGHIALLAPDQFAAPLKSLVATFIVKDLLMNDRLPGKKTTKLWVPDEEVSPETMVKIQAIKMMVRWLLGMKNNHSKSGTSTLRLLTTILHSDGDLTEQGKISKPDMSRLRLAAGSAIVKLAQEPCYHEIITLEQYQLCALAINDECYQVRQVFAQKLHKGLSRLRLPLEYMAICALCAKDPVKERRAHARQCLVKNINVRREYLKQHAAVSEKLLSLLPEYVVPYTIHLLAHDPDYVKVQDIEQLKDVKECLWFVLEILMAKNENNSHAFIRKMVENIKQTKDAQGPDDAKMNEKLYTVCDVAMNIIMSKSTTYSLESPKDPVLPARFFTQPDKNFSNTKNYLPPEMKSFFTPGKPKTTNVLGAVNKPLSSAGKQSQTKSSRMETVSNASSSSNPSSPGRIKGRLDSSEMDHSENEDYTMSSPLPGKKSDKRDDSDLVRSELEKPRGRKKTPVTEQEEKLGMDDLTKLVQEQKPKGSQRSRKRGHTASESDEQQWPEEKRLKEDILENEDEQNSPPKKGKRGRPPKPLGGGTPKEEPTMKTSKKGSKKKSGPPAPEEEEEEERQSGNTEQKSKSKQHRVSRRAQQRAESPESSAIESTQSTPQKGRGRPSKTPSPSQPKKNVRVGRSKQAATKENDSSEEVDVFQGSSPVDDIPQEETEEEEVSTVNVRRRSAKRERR
# Summary of the method: as §1
# ARHGAP10 = target: T4, ARHGAP10 (UniProt A1A4S6)
# T4 sequence (whole entry): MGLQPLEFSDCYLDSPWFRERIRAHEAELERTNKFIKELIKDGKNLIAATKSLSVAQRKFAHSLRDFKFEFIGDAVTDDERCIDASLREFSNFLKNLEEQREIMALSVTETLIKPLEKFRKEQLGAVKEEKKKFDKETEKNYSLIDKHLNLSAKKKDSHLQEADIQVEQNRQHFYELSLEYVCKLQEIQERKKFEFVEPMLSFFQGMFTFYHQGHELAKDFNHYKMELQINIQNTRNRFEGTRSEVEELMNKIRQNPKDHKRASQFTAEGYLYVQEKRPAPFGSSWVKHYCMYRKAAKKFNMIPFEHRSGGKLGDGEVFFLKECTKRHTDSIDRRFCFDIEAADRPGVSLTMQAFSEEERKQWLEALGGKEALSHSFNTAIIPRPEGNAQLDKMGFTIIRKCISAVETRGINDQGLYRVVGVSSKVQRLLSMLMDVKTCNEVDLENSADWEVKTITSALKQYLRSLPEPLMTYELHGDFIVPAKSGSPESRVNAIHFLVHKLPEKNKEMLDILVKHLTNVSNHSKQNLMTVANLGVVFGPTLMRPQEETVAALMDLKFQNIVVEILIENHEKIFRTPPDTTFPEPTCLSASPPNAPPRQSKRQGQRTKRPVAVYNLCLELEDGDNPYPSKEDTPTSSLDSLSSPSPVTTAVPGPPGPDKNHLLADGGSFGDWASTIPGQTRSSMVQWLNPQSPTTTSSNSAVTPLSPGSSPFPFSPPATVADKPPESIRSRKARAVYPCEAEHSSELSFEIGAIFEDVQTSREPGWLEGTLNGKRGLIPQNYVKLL
# Summary of the method: as §1
smiles,measurement,setting,value
Nc1ncnc2c1ncn2[C@@H]1O[C@H](COP(=O)(O)OP(=O)(O)OP(=O)(O)O)[C@@H](O)[C@H]1O [adenosine triphosphate],NP40-soluble protein abundance,[1]; concentration: 1mM,1.08 ± 0.078
same,NP40-soluble protein abundance,[1]; concentration: 2mM,1.11 ± 0.11
same,NP40-soluble protein abundance,[1]; concentration: 4mM,1.12 ± 0.077
same,NP40-soluble protein abundance,[1]; concentration: 6mM,1.15 ± 0.23
same,NP40-soluble protein abundance,[1]; concentration: 8mM,1.16 ± 0.12
same,NP40-soluble protein abundance,[1]; concentration: 10mM,1.2 ± 0.13
same,NP40-soluble protein abundance,[2]; concentration: 1mM,0.912 ± 0.085
same,NP40-soluble protein abundance,[2]; concentration: 2mM,0.912 ± 0.041
same,NP40-soluble protein abundance,[2]; concentration: 4mM,0.897 ± 0.03
same,NP40-soluble protein abundance,[2]; concentration: 6mM,0.934 ± 0.054
same,NP40-soluble protein abundance,[2]; concentration: 8mM,0.925 ± 0.029
same,NP40-soluble protein abundance,[2]; concentration: 10mM,0.82 ± 0.11
same,NP40-soluble protein abundance,[3]; concentration: 1mM,1 ± 0.029
same,NP40-soluble protein abundance,[3]; concentration: 2mM,1 ± 0.023
same,NP40-soluble protein abundance,[3]; concentration: 4mM,0.9802 ± 0.0048
same,NP40-soluble protein abundance,[3]; concentration: 6mM,0.996 ± 0.032
same,NP40-soluble protein abundance,[3]; concentration: 8mM,1.01 ± 0.021
same,NP40-soluble protein abundance,[3]; concentration: 10mM,1.02 ± 0.031
same,NP40-soluble protein abundance,ARHGAP10; concentration: 1mM,1.028 ± 0.0035
same,NP40-soluble protein abundance,ARHGAP10; concentration: 2mM,1.01 ± 0.044
same,NP40-soluble protein abundance,ARHGAP10; concentration: 4mM,1.1 ± 0.064
same,NP40-soluble protein abundance,ARHGAP10; concentration: 6mM,1.07 ± 0.066
same,NP40-soluble protein abundance,ARHGAP10; concentration: 8mM,1.06 ± 0.037
same,NP40-soluble protein abundance,ARHGAP10; concentration: 10mM,1.12 ± 0.026

# Reformatted as tab-separated lines: part of the list above
smiles	measurement	setting	value
Nc1ncnc2c1ncn2[C@@H]1O[C@H](COP(=O)(O)OP(=O)(O)OP(=O)(O)O)[C@@H](O)[C@H]1O [adenosine triphosphate]	NP40-soluble protein abundance	[3]; concentration: 2mM	1 ± 0.023
same	NP40-soluble protein abundance	[3]; concentration: 4mM	0.9802 ± 0.0048
same	NP40-soluble protein abundance	[3]; concentration: 6mM	0.996 ± 0.032
same	NP40-soluble protein abundance	[3]; concentration: 8mM	1.01 ± 0.021
same	NP40-soluble protein abundance	[3]; concentration: 10mM	1.02 ± 0.031
same	NP40-soluble protein abundance	ARHGAP10; concentration: 1mM	1.028 ± 0.0035
